PubChem BioAssay AID743121 – NCATS | 2013
The whole screen tested about 26,000 reagents; below is an unselected part. Of all reagents, 167 (0.63%) got an active call. 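Calls are per gene from RSA p-values that are not deposited; an individual active-marked siRNA can sensitise only weakly.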 A number with no mark means an inactive call. The numbers tell different reagents against one gene apart. Further read-outs or replicates are left out here.

Aim: 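Genes whose silencing strengthens cell killing by camptothecin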 (primary screen)
Cells: MDA-MB-231 cells, a human breast cancer line
Reagent: single siRNA against human genes, 20 nM siRNA (0.8 pmol per well)
Time to read-out: 120 h (drug added 48 h after transfection, read 72 h later)
Challenge: camptothecin 20 nM (about EC30) for 72 h; vehicle 0.1% DMSO in parallel plates
Measured: 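Cell viability by ATP luminescence (CellTiter-Glo) as % of non-targeting siRNA wells, and the log2 ratio of viability without drug over viability with camptothecin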
Scale: log2 vehicle/camptothecin viability: higher = stronger sensitisation to camptothecin; viability with camptothecin: higher = more viable cells
Units: viability with camptothecin in % of control
Rule for the call: 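Active genes have an RSA gene-level p-value below 0.001, computed from the ratios of their separate siRNAs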

OR7D2 (olfactory receptor family 7 subfamily D member 2) #1: log2 vehicle/camptothecin viability = -0.448; viability with camptothecin = 81
OR7D2 (olfactory receptor family 7 subfamily D member 2) #2: log2 vehicle/camptothecin viability = -0.138; viability with camptothecin = 95.7
OR7D2 (olfactory receptor family 7 subfamily D member 2) #3: log2 vehicle/camptothecin viability = -0.32; viability with camptothecin = 134
OR7D2 (olfactory receptor family 7 subfamily D member 2) #4: log2 vehicle/camptothecin viability = -0.563; viability with camptothecin = 82.5
GATA2 (GATA binding protein 2) #1: log2 vehicle/camptothecin viability = -0.487; viability with camptothecin = 76.1
GATA2 (GATA binding protein 2) #2: log2 vehicle/camptothecin viability = 0.0301; viability with camptothecin = 46
GATA2 (GATA binding protein 2) #3: log2 vehicle/camptothecin viability = -0.154; viability with camptothecin = 82
GATA2 (GATA binding protein 2) #4: log2 vehicle/camptothecin viability = -0.107; viability with camptothecin = 80.4
CLDN4 (claudin 4) #1: log2 vehicle/camptothecin viability = -0.534; viability with camptothecin = 79.3
CLDN4 (claudin 4) #2: log2 vehicle/camptothecin viability = 0.349; viability with camptothecin = 49.8
CLDN4 (claudin 4) #3: log2 vehicle/camptothecin viability = -0.039; viability with camptothecin = 52.1
CLDN4 (claudin 4) #4: log2 vehicle/camptothecin viability = 0.507; viability with camptothecin = 40.8
PYGO1 (pygopus family PHD finger 1) #1: log2 vehicle/camptothecin viability = -0.107; viability with camptothecin = 88.8
PYGO1 (pygopus family PHD finger 1) #2: log2 vehicle/camptothecin viability = 0.637; viability with camptothecin = 52.5
PYGO1 (pygopus family PHD finger 1) #3: log2 vehicle/camptothecin viability = 0.2; viability with camptothecin = 102
PYGO1 (pygopus family PHD finger 1) #4: log2 vehicle/camptothecin viability = -0.241; viability with camptothecin = 114
APC2 (APC regulator of Wnt signaling pathway 2) #1: log2 vehicle/camptothecin viability = -0.171; viability with camptothecin = 75.7
APC2 (APC regulator of Wnt signaling pathway 2) #2: log2 vehicle/camptothecin viability = -0.141; viability with camptothecin = 79
APC2 (APC regulator of Wnt signaling pathway 2) #3: log2 vehicle/camptothecin viability = -0.0871; viability with camptothecin = 19.5
APC2 (APC regulator of Wnt signaling pathway 2) #4: log2 vehicle/camptothecin viability = -0.189; viability with camptothecin = 86.1
TRPV3 #1: log2 vehicle/camptothecin viability = -0.287; viability with camptothecin = 86
TRPV3 #2: log2 vehicle/camptothecin viability = 0.247; viability with camptothecin = 95.2
TRPV3 #3: log2 vehicle/camptothecin viability = 0.0193; viability with camptothecin = 28.7
CKB (creatine kinase B) #1: log2 vehicle/camptothecin viability = 0.0522; viability with camptothecin = 40.8
CKB (creatine kinase B) #2: log2 vehicle/camptothecin viability = 0.523; viability with camptothecin = 13
CKB (creatine kinase B) #3: log2 vehicle/camptothecin viability = -0.146; viability with camptothecin = 81.4
CKB (creatine kinase B) #4: log2 vehicle/camptothecin viability = -0.325; viability with camptothecin = 73
CDK14 (cyclin dependent kinase 14) #1: log2 vehicle/camptothecin viability = 0.0692; viability with camptothecin = 52.5
CDK14 (cyclin dependent kinase 14) #2: log2 vehicle/camptothecin viability = 0.0632; viability with camptothecin = 32.7
CDK14 (cyclin dependent kinase 14) #3: log2 vehicle/camptothecin viability = -0.293; viability with camptothecin = 125
CDK14 (cyclin dependent kinase 14) #4: log2 vehicle/camptothecin viability = -0.116; viability with camptothecin = 93.3
IL36R (interleukin 36 receptor) #1: log2 vehicle/camptothecin viability = -0.186; viability with camptothecin = 109
IL36R (interleukin 36 receptor) #2: log2 vehicle/camptothecin viability = -0.261; viability with camptothecin = 136
IL36R (interleukin 36 receptor) #3: log2 vehicle/camptothecin viability = -0.0892; viability with camptothecin = 118
IL36R (interleukin 36 receptor) #4: log2 vehicle/camptothecin viability = -0.419; viability with camptothecin = 99.5
